According to US20030114382A1, “Glycogen synthase kinase function in endothelial cells” (priority 2001, published 2003):
Entries after “also recorded” stand apart in the source; their conditions may differ. For at least one compound, name, drawing or mass did not settle the structure.

Columns and labels:
[1] = system: GSK3β phosphorylation at serine 9; assay: Immunoblot of GSK3β phosphorylation at serine 9 in HUVECs; format: cell-based, human
[2] = system: Akt phosphorylation; assay: Immunoblot of Akt phosphorylation in HUVECs; format: cell-based, human; conditions: single agent

Structure (SMILES) | serum-induced phosphorylation of GSK3β ([1]; serum-starved HUVECs, 1 hour pretreatment with agent, 10% FBS 1 hour) | Akt phosphorylation [2] | phosphorylation of GSK3β on stimulation with PKA activator ([1]; serum-deprived HUVECs)
O=c1cc(N2CCOCC2)oc2c(-c3ccccc3)cccc12 [LY294002] | blocked; also recorded: strong inhibitory effect | blocked | 
C=C[C@@]1(C)CC(=O)[C@]2(O)[C@@]3(C)[C@@H](O)CCC(C)(C)[C@@H]3[C@H](O)[C@H](OC(C)=O)[C@@]2(C)O1 [forskolin] |  |  | induced
